Source: PMC12670160, “A drug-repurposing screen of FDA- and EMA-approved drugs identifies two NF-κB inhibitors active against eumycetoma” (Journal of Antimicrobial Chemotherapy, 2025)
Counter-ions that a name gives are not always drawn. Among all 5,300 compounds or so, about 130 (2.5%) showed an effect of 50% or more. This is one part of the list. Square brackets hold non-standard residues; d marks the D form. Peptide text beside a SMILES is read from it. dPhe(4-Cl) = N[C@H](Cc1ccc(Cl)cc1)C(=O)O; d2Nal = N[C@H](Cc1ccc2ccccc2c1)C(=O)O; dCit = NC(=O)NCCC[C@@H](N)C(=O)O; d3Pal = N[C@H](Cc1cccnc1)C(=O)O

System: M. mycetomatis strain mm55
Details: primary screen, metabolic activity vs growth control; 96 h, 2 µM; inhibitor

Compared with `CC(=O)O[C@@H]1CC[C@@]2(C)C(CC[C@]3(C)C2C(=O)C=C2[C@@H]4[C@@H](C)[C@H](C)CC[C@]4(C)CC[C@]23C)[C@@]1(C)C(=O)O` (stereo partly drawn) [ONC0003387, acetyl11ketobetaboswellicacid], `CCC(=O)[C@@]1(C)[C@H](C)C[C@H]2[C@@H]3CCC4=CC(=O)C=C[C@]4(C)[C@H]3[C@@H](O)C[C@@]21C` [ONC0002928, rimexolone] is lower in “% viability” value: 70.79% for the first, 55.04% for the second.

Compared with `CC(C)Oc1ccc(-c2nc(-c3cccc4c3CC[C@@H]4NCCO)no2)cc1C#N` [ONC0002409, ozanimod], `CCC[C@H](NC(=O)/C(C#N)=C/c1cccc(Br)n1)c1ccccc1` [ONC0005240, degrasyn wp1130] is higher in “% viability” value: 70.06% for the first, 112.8% for the second.

Compared with `CN1CCC(=C2c3ccccc3C=Cc3ccccc32)CC1` [ONC0004044, cyproheptadine hydrochloride], `CNCCC=C1c2ccccc2CCc2ccccc21` [ONC0000417, nortriptyline hydrochloride] is higher in “% viability” value: 60.6% for the first, 62.43% for the second.

Going from `CSc1nc(-c2ccc(F)cc2)c(-c2ccnc(NC(C)c3ccccc3)c2)[nH]1` (stereo not drawn) [ONC0000840, ml3403] to `Cc1ccc(-c2n[nH]c3c2C(c2cccc(O)c2)N(c2ccc(C(=O)O)cc2)C3=O)cc1` (stereo not drawn) [ONC0000222, cid16020046], the “% viability” value rises from 74.14% to 94.06%.

Going from `C=CCN1C[C@H](C(=O)N(CCCN(C)C)C(=O)NCC)C[C@@H]2c3cccc4[nH]cc(c34)C[C@H]21` [ONC0003469, cabergoline] to `CCCN(CCC)[C@@H]1CCc2c(OC)cccc2[C@@H]1C` [ONC0001853, uh232], the “% viability” value rises from 67.83% to 68.34%.

Compared with `CNC1CCCN(c2c(F)cc3c(=O)c(C(=O)O)cn(C4CC4)c3c2OC)C1` (stereo not drawn) [ONC0004924, balofloxacin], `CCc1c2c(nc3ccc(OC(=O)N4CCC(N5CCCCC5)CC4)cc13)-c1cc3c(c(=O)n1C2)COC(=O)[C@]3(O)CC` [ONC0003030, irinotecan] is lower in “% viability” value: 134.1% for the first, 94.75% for the second.

First: CN1CCN(CC/C=C2/c3ccccc3Sc3ccc(S(=O)(=O)N(C)C)cc32)CC1 [ONC0003858, thiothixene]
Second: COC(=O)c1ccc(N2CCN(C)CC2)c(NC(=O)c2cccc(OC)c2)c1 [ONC0003556, wdr50103]
The “% viability” value of the first is lower: 64.86% for the first, 126.9% for the second.

First: COc1ccc(C(=O)/C(Cc2cc(OC)c(OC)c(OC)c2)=C(\C(=O)O)c2ccc3c(c2)OCO3)cc1 [ONC0002114, pd156707]
Second: COc1cc(OC)c(/C=C2/C(=O)Nc3ccccc32)c(OC)c1 [ONC0000989, ic261]
The “% viability” value of the first is higher: 95.79% for the first, 74.99% for the second.

Going from `CC[C@H]1[C@@H](O)[C@@H]2[C@H](CC[C@]3(C)[C@@H]([C@H](C)CCC(=O)O)CC[C@@H]23)[C@@]2(C)CC[C@@H](O)C[C@@H]12` [ONC0000794, int747] to `C=C1/C(=C\C=C2/CCC[C@]3(C)[C@@H]([C@H](C)CCCC(C)(C)O)CC[C@@H]23)C[C@@H](O)C[C@@H]1O` [ONC0004894, calcitriol rocaltrol], the “% viability” value rises from 88.53% to 111.5%.

Compared with `C[C@@H](Oc1ccc2[nH]nc(/C=C/c3cnn(CCO)c3)c2c1)c1c(Cl)cncc1Cl` [ONC0001103, ly2874455], `Cn1cc(C2=C(c3ccc(Cl)cc3Cl)C(=O)NC2=O)c2ccccc21` [ONC0001729, sb216763] is lower in “% viability” value: 68.7% for the first, 67.05% for the second.

Going from `CC(C)(C=O)Cc1cc(C(C)(C)C)c(O)c(C(C)(C)C)c1` [ONC0001447, cgp13501] to `CC(C)(C)c1ccc(CN(Cc2cccc(OCC(=O)O)c2)S(=O)(=O)c2cccnc2)cc1` [ONC0001119, evatanepag], the “% viability” value falls from 107.5% to 63.47%.

Going from `CCCCN1[C@@H]2CC[C@H]1C[C@@H](OC(c1ccc(F)cc1)c1ccc(F)cc1)C2` [ONC0003046, jhw007] to `Oc1ccc([C@@H]2Oc3ccc(O)cc3[C@@H]3CCC[C@@H]32)cc1` [ONC0003816, erteberel], the “% viability” value falls from 64.39% to 55.32%.

Going from `Cn1c2cc([S+](C)[O-])sc2c2cnn(Cc3cccc(N)c3)c(=O)c21` (stereo not drawn) [ONC0001067, tepp46] to `COc1cc2c(cc1NS(=O)(=O)c1ccc(Br)cc1C)n(C)c(=O)n2C` [ONC0003061, of1], the “% viability” value rises from 56.1% to 102.7%.

First: Cc1cc(-c2nc(C(=O)Nc3cn(C4CCOCC4)nc3C(N)=O)co2)ccn1 [ONC0003602, as2444697]
Second: Cc1cc(NC(=O)C(c2ccccc2)N2CCCc3ccccc32)no1 (stereo not drawn) [ONC0001364, cim0216]
The “% viability” value of the first is higher: 131.8% for the first, 123.8% for the second.

First: C[C@@]1(CO)[C@H](O)CC[C@@]2(C)[C@H]1CC[C@H]1C[C@@H]3C[C@@]12CC[C@]3(O)CO [ONC0003485, aphidicolin]
Second: C[C@@H]1C[C@H]2[C@@H]3CCC4=CC(=O)C=C[C@]4(C)[C@@]3(Cl)[C@@H](O)C[C@]2(C)[C@@]1(O)C(=O)CCl [ONC0005386, mometasone]
The “% viability” value of the first is lower: 62.35% for the first, 83.14% for the second.

Compared with `CC/C(=C(/CC)c1ccc(OP(=O)(O)O)cc1)c1ccc(OP(=O)(O)O)cc1` [ONC0003658, 3hexene34diylbis41phenylenebisdihydrogen phosphate], `CC(=O)Nc1ccc(S(=O)(=O)Nc2ccc([N+](=O)[O-])cc2)cc1` [ONC0003086, sulfanitran] is lower in “% viability” value: 81.1% for the first, 68.87% for the second.

Going from `Clc1cccc(Cl)c1N=C1NCCN1` [ONC0004193, clonidine hydrochloride] to `CC(C)(C)NCC(O)c1ccccc1Cl` (stereo not drawn) [ONC0002321, tulobuterol hydrochloride], the “% viability” value falls from 96.49% to 66.86%.

First: C[C@@H](O)[C@H](N)C(=O)O [ONC0005364, lthreonine]
Second: N=C(N)NCCC(=O)O [ONC0005527, guanidinopropionicacid]
The “% viability” value of the first is lower: 105% for the first, 129.1% for the second.

Compared with `CC(C)(O/N=C(\C(=O)N[C@@H]1C(=O)N2C(C(=O)[O-])=C(C[n+]3ccccc3)CS[C@H]12)c1csc(N)n1)C(=O)O` [ONC0005610, ceftazidime], `C[C@H]1[C@H](NC(=O)/C(=N\OC(C)(C)C(=O)O)c2csc(N)n2)C(=O)N1S(=O)(=O)O` [ONC0004310, aztreonam] is higher in “% viability” value: 74.59% for the first, 85.25% for the second.

Compared with `COC(=O)C1=C(C)NC(C)=C(C(=O)OC/C=C/c2ccccc2)C1c1cccc([N+](=O)[O-])c1` (stereo not drawn) [ONC0003415, pranidipine], `C[n+]1ccc(C(=O)NCc2ccccc2)cc1` [ONC0003175, enisamiumiodide] is lower in “% viability” value: 94.69% for the first, 85.48% for the second.

Going from `CC(C)=CCC/C(C)=C/CNCCNC1C2CC3CC(C2)CC1C3` (stereo not drawn) [ONC0002271, sq109] to `C=C1/C(=C\C=C2/CCC[C@]3(C)[C@@H]([C@H](C)CCCC(O)(C(F)(F)F)C(F)(F)F)CC[C@@H]23)C[C@@H](O)C[C@@H]1O` [ONC0002042, falecalcitriol], the “% viability” value rises from 59.4% to 65.6%.

Going from `COc1cc2c(cc1OC)[C@@H]1CC(=O)[C@@H](CC(C)C)CN1CC2` [ONC0002682, tetrabenazine] to `CC[C@@H]1CN2C(=O)N(C)c3nc(-c4ccccc4)[nH]c3C2=N1` [ONC0002512, psb11], the “% viability” value falls from 76.22% to 71%.

Going from `OC[C@H]1O[C@@H](OCCc2ccc(O)cc2)[C@H](O)[C@@H](O)[C@@H]1O` [ONC0005198, salidroside rhodioloside] to `NC(Cn1ccc(=O)n(Cc2ccccc2C(=O)O)c1=O)C(=O)O` (stereo not drawn) [ONC0000754, ubp302], the “% viability” value falls from 157.1% to 93.89%.

Going from `CC(=O)N[C@H](Cc1ccc2ccccc2c1)C(=O)N[C@H](Cc1ccc(Cl)cc1)C(=O)N[C@H](Cc1cccnc1)C(=O)N[C@@H](CO)C(=O)N[C@@H](Cc1ccc(O)cc1)C(=O)N[C@H](CCCNC(N)=O)C(=O)N[C@@H](CC(C)C)C(=O)N[C@@H](CCCNC(=N)N)C(=O)N1CCC[C@H]1C(=O)N[C@H](C)C(N)=O` [ONC0002249, cetrorelix acetate] (Ac-[d2Nal][dPhe(4-Cl)][d3Pal]SY[dCit]LRP[dA]-NH2) to `CC[C@H](C)[C@@H]([C@@H](CC(=O)N1CCC[C@H]1[C@H](OC)[C@@H](C)C(=O)N[C@@H](Cc1ccccc1)c1nccs1)OC)N(C)C(=O)[C@@H](NC(=O)[C@H](C(C)C)N(C)C)C(C)C` [ONC0003667, dolastin10], the “% viability” value falls from 190.6% to 74.88%.

Compared with `O=C1Nc2cc(Br)ccc2/C1=C1/Nc2ccccc2/C1=N\O` [ONC0000166, gsk3inhibitorix], `CN(C)c1cccc(Oc2cnc(Nc3cccc(O)c3)nc2)c1` [ONC0000163, sen1269] is higher in “% viability” value: 89.34% for the first, 90.25% for the second.

Compared with `O=C(NC(NC(=S)Nc1ccc(F)c([N+](=O)[O-])c1)C(Cl)(Cl)Cl)C(c1ccccc1)c1ccccc1` (stereo not drawn) [ONC0002722, cgk733], `Oc1cc(CNC(=S)/C=C/c2cc(O)c(O)c(Br)c2)cc(O)c1O` [ONC0000999, nt157] is lower in “% viability” value: 77.49% for the first, 50.94% for the second.

First: CC[C@H](C)[C@H]1O[C@]2(CC[C@@H]1C)C[C@@H]1C[C@@H](C/C=C(\C)[C@@H](O[C@H]3C[C@H](OC)[C@@H](O[C@H]4C[C@H](OC)[C@@H](O)[C@H](C)O4)[C@H](C)O3)[C@@H](C)/C=C/C=C3\CO[C@@H]4[C@H](O)C(C)=C[C@@H](C(=O)O1)[C@]34O)O2 [ONC0003329, ivermectin]
Second: CCc1cc(C(N)=S)ccn1 [ONC0000728, ethionamide]
The “% viability” value of the first is lower: 60.96% for the first, 82.77% for the second.
